# Test results published in the supplement of paper PMC8728848.
# The other results are listed elsewhere or left out.
# What was measured:
# Experiment in all cases: glycan array binding signal (z-score within array); higher = stronger binding
# Conditions in all cases: glycan notation: IUPAC condensed, linker removed
# [1] = molecular target: Neu5Ac(a2-3)Gal(b1-3)[Fuc(a1-4)]GlcNAc
# Method in brief: (§1)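 The binding signal is a Z-score computed within each array. Data were drawn from 3228 arrays in the Consortium for Functional Glycomics database, restricted to those with a known protein sequence. Scores were averaged over arrays of the same protein sequence at different concentrations or buffers, and over linkers, and negative values can be taken as non-binding.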
# [2] = molecular target: Neu5Ac(a2-3)Gal(b1-3)[Fuc(a1-4)]GlcNAc(b1-3)Gal(b1-3)[Fuc(a1-4)]GlcNAc
# Method in brief: as §1
# [3] = molecular target: Neu5Ac(a2-3)Gal(b1-3)[Fuc(a1-4)]GlcNAc(b1-3)Gal(b1-4)[Fuc(a1-3)]GlcNAc
# Method in brief: as §1
# [4] = molecular target: Neu5Ac(a2-3)Gal(b1-3)[GlcNAc(b1-6)]GalNAc
# Method in brief: as §1
# [5] = molecular target: Neu5Ac(a2-3)Gal(b1-3)[Neu5Ac(a2-6)]GalNAc
# Method in brief: as §1
# [6] = molecular target: Neu5Ac(a2-3)Gal(b1-3)[Neu5Ac(a2-6)]GlcNAc(b1-3)[Fuc(a1-3)[Gal(b1-4)]GlcNAc(b1-6)]Gal(b1-4)Glc
# Method in brief: as §1
# [7] = molecular target: Neu5Ac(a2-3)Gal(b1-3)]Neu5Ac(a2-3)Gal(b1-4)]GlcNAc
# Method in brief: as §1
# Neu5Ac(a2-3)Gal(b1-4)Glc = molecular target: Neu5Ac(a2-3)Gal(b1-4)Glc
# Method in brief: as §1
# [8] = molecular target: Neu5Ac(a2-3)Gal(b1-4)GlcNAc
# Method in brief: as §1
# [9] = molecular target: Neu5Ac(a2-3)Gal(b1-4)GlcNAc(b1-2)Man
# Method in brief: as §1
# [10] = molecular target: Neu5Ac(a2-3)Gal(b1-4)GlcNAc(b1-2)Man(a1-3)[GlcNAc(b1-4)][Neu5Ac(a2-3)Gal(b1-4)GlcNAc(b1-2)Man(a1-6)]Man(b1-4)GlcNAc(b1-4)GlcNAc
# Method in brief: as §1
# [11] = molecular target: Neu5Ac(a2-3)Gal(b1-4)GlcNAc(b1-2)Man(a1-3)[Neu5Ac(a2-3)Gal(b1-4)GlcNAc(b1-2)Man(a1-6)]Man(b1-4)GlcNAc(b1-4)GlcNAc
# Method in brief: as §1
# [12] = molecular target: Neu5Ac(a2-3)Gal(b1-4)GlcNAc(b1-2)Man(a1-3)[Neu5Ac(a2-3)Gal(b1-4)GlcNAc(b1-2)Man(a1-6)]Man(b1-4)GlcNAc(b1-4)[Fuc(a1-6)]GlcNAc
# Method in brief: as §1
# [13] = molecular target: Neu5Ac(a2-3)Gal(b1-4)GlcNAc(b1-2)Man(a1-3)[Neu5Ac(a2-6)Gal(b1-4)GlcNAc(b1-2)Man(a1-6)]Man(b1-4)GlcNAc(b1-4)GlcNAc
# Method in brief: as §1
# [14] = molecular target: Neu5Ac(a2-3)Gal(b1-4)GlcNAc(b1-2)[Neu5Ac(a2-3)Gal(b1-4)GlcNAc(b1-4)]Man(a1-3)[GlcNAc(b1-4)][Neu5Ac(a2-3)Gal(b1-4)GlcNAc(b1-2)[Neu5Ac(a2-3)Gal(b1-4)GlcNAc(b1-6)]Man(a1-6)]Man(b1-4)GlcNAc(b1-4)GlcNAc
# Method in brief: as §1
# [15] = molecular target: Neu5Ac(a2-3)Gal(b1-4)GlcNAc(b1-2)[Neu5Ac(a2-3)Gal(b1-4)GlcNAc(b1-4)]Man(a1-3)[GlcNAc(b1-4)][Neu5Ac(a2-3)Gal(b1-4)GlcNAc(b1-4)Man(a1-6)]Man(b1-4)GlcNAc(b1-4)GlcNAc
# Method in brief: as §1
# [16] = molecular target: Neu5Ac(a2-3)Gal(b1-4)GlcNAc(b1-2)[Neu5Ac(a2-3)Gal(b1-4)GlcNAc(b1-6)]Man(a1-6)[Neu5Ac(a2-3)Gal(b1-4)GlcNAc(b1-2)Man(a1-3)]Man(b1-4)GlcNAc(b1-4)GlcNAc
# Method in brief: as §1
# [17] = molecular target: Neu5Ac(a2-3)Gal(b1-4)GlcNAc(b1-2)[Neu5Ac(a2-3)Gal(b1-4)GlcNAc(b1-6)]Man(a1-6)[Neu5Ac(a2-3)Gal(b1-4)GlcNAc(b1-2)Man(a1-3)][GlcNAc(b1-4)]Man(b1-4)GlcNAc(b1-4)GlcNAc
# Method in brief: as §1
# [18] = molecular target: Neu5Ac(a2-3)Gal(b1-4)GlcNAc(b1-3)Gal
# Method in brief: as §1
# [19] = molecular target: Neu5Ac(a2-3)Gal(b1-4)GlcNAc(b1-3)Gal(b1-3)GlcNAc
# Method in brief: as §1
# [20] = molecular target: Neu5Ac(a2-3)Gal(b1-4)GlcNAc(b1-3)Gal(b1-4)GlcNAc
# Method in brief: as §1
# [21] = molecular target: Neu5Ac(a2-3)Gal(b1-4)GlcNAc(b1-3)Gal(b1-4)GlcNAc(b1-2)Man(a1-3)[Neu5Ac(a2-3)Gal(b1-4)GlcNAc(b1-3)Gal(b1-4)GlcNAc(b1-2)Man(a1-6)]Man(b1-4)GlcNAc(b1-4)GlcNAc
# Method in brief: as §1
# [22] = molecular target: Neu5Ac(a2-3)Gal(b1-4)GlcNAc(b1-3)Gal(b1-4)GlcNAc(b1-3)Gal(b1-4)GlcNAc
# Method in brief: as §1
# [23] = molecular target: Neu5Ac(a2-3)Gal(b1-4)GlcNAc(b1-3)Gal(b1-4)GlcNAc(b1-3)Gal(b1-4)GlcNAc(b1-2)Man(a1-3)[Neu5Ac(a2-3)Gal(b1-4)GlcNAc(b1-3)Gal(b1-4)GlcNAc(b1-3)Gal(b1-4)GlcNAc(b1-2)Man(a1-6)]GalNAc
# Method in brief: as §1
# [24] = molecular target: Neu5Ac(a2-3)Gal(b1-4)GlcNAc(b1-3)Gal(b1-4)GlcNAc(b1-3)GalNAc
# Method in brief: as §1
# [25] = molecular target: Neu5Ac(a2-3)Gal(b1-4)GlcNAc(b1-3)Gal(b1-4)GlcNAc(b1-3)[Neu5Ac(a2-3)Gal(b1-4)GlcNAc(b1-3)Gal(b1-4)GlcNAc(b1-6)]GalNAc
# Method in brief: as §1
# [26] = molecular target: Neu5Ac(a2-3)Gal(b1-4)GlcNAc(b1-3)Gal(b1-4)GlcNAc(b1-6)[Gal(b1-3)]GalNAc
# Method in brief: as §1
# [27] = molecular target: Neu5Ac(a2-3)Gal(b1-4)GlcNAc(b1-3)Gal(b1-4)[Fuc(a1-3)]GlcNAc
# Method in brief: as §1
# [28] = molecular target: Neu5Ac(a2-3)Gal(b1-4)GlcNAc(b1-3)GalNAc
# Method in brief: as §1
# [29] = molecular target: Neu5Ac(a2-3)Gal(b1-4)GlcNAc(b1-3)[Neu5Ac(a2-3)Gal(b1-4)GlcNAc(b1-6)]GalNAc
# Method in brief: as §1
binder,measurement,setting,value
"Protein L(A-C2) (Finegoldia magna), Q51912 (protein) ADEPIDLEKLEEKRDKENVGNLPKFDNEVKDGSENPMAKYPDFDDEASTRFETENNEFEEKKVVSDNFFDQSEHPFVENKEETPETPETDSEEEVTIKANLIFANGSTQTAEFKGTFEKATSEAYAYADTLKKDNGEYTVDVADKGYTLNIKFAGKEKTPEEPKEEVTIKANLIYADGKTQTAEFKGTFEEATAEAYRYADALKKDNGEYTVDVADKGYTLNIKFAGKEKTPEEPKEEVTIKANLIYADGKTQTAEFKGTFEEATAEAYRYADLLAKENGKYTVDVADKGYTLNIKFAGKEKTPEEPKEEVTIKANLIYADGKTQTAEFKGTFAEATAEAYRYADLLAKENGKYTADLEDGGYTINIRFAGKKVDEKPEEKEQVTIKENIYFEDGTVQTATFKGTFAEATAEAYRYADLLSKEHGKYTADLEDGGYTINIRFAGKEEPEETPEKPEVQDGYASYEEAEAAAKEALKNDDVNKSYTIRQGADGRYYYVLSPVEAEEEKPEAQNGYATYEEAEAAAKKALENDPINKSYSIRQGADGRYYYVLSPVEAE",glycan array binding signal (z-score),[1],-0.939
same,glycan array binding signal (z-score),[2],0.413
same,glycan array binding signal (z-score),[3],0.16
same,glycan array binding signal (z-score),[4],-0.278
same,glycan array binding signal (z-score),[5],-0.759
same,glycan array binding signal (z-score),[6],-0.758
same,glycan array binding signal (z-score),[7],-0.754
same,glycan array binding signal (z-score),Neu5Ac(a2-3)Gal(b1-4)Glc,0.38
same,glycan array binding signal (z-score),[8],-0.281
same,glycan array binding signal (z-score),[9],1.2
same,glycan array binding signal (z-score),[10],-0.228
same,glycan array binding signal (z-score),[11],-0.474
same,glycan array binding signal (z-score),[12],2.19
same,glycan array binding signal (z-score),[13],-0.634
same,glycan array binding signal (z-score),[14],-0.678
same,glycan array binding signal (z-score),[15],-0.74
same,glycan array binding signal (z-score),[16],1.63
same,glycan array binding signal (z-score),[17],-0.899
same,glycan array binding signal (z-score),[18],-0.678
same,glycan array binding signal (z-score),[19],-1.25
same,glycan array binding signal (z-score),[20],-1.1
same,glycan array binding signal (z-score),[21],2.07
same,glycan array binding signal (z-score),[22],0.675
same,glycan array binding signal (z-score),[23],3.85
same,glycan array binding signal (z-score),[24],-0.551
same,glycan array binding signal (z-score),[25],0.955
same,glycan array binding signal (z-score),[26],2.4
same,glycan array binding signal (z-score),[27],-0.443
same,glycan array binding signal (z-score),[28],-0.832
same,glycan array binding signal (z-score),[29],-0.953

# Not a retest: entries from further up.
binder,measurement,setting,value
"Protein L(A-C2) (Finegoldia magna), Q51912 (protein) ADEPIDLEKLEEKRDKENVGNLPKFDNEVKDGSENPMAKYPDFDDEASTRFETENNEFEEKKVVSDNFFDQSEHPFVENKEETPETPETDSEEEVTIKANLIFANGSTQTAEFKGTFEKATSEAYAYADTLKKDNGEYTVDVADKGYTLNIKFAGKEKTPEEPKEEVTIKANLIYADGKTQTAEFKGTFEEATAEAYRYADALKKDNGEYTVDVADKGYTLNIKFAGKEKTPEEPKEEVTIKANLIYADGKTQTAEFKGTFEEATAEAYRYADLLAKENGKYTVDVADKGYTLNIKFAGKEKTPEEPKEEVTIKANLIYADGKTQTAEFKGTFAEATAEAYRYADLLAKENGKYTADLEDGGYTINIRFAGKKVDEKPEEKEQVTIKENIYFEDGTVQTATFKGTFAEATAEAYRYADLLSKEHGKYTADLEDGGYTINIRFAGKEEPEETPEKPEVQDGYASYEEAEAAAKEALKNDDVNKSYTIRQGADGRYYYVLSPVEAEEEKPEAQNGYATYEEAEAAAKKALENDPINKSYSIRQGADGRYYYVLSPVEAE",glycan array binding signal (z-score),[15],-0.74
same,glycan array binding signal (z-score),[16],1.63
